## Cleaved PARP after 72 h of treatment

From a melanoma drug combination screen (doi:10.1371/journal.pone.0140310); values rounded.

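Human melanoma cell lines in 1,536-well plates were treated with a pair of drugs for 72 h, then fixed, stained and imaged. Each value is the cleaved-PARP-positive fraction of nuclei relative to DMSO-treated wells, in %, so that 100 equals the control and higher values mean more apoptosis. Every drug was used at one fixed concentration, the higher of two screened. The file gives one value for each pair and line, without errors, so small differences may be noise. Basal and induced levels differ widely between cell lines.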
An unselected part of the screen is shown.
A dash means that no value is listed here.

Compounds and concentrations:
GW441756 (2 µM): Cn1cc(/C=C2\C(=O)Nc3cccnc32)c2ccccc21
TCS401 (8.33 µM): O=C(O)C(=O)Nc1sc2c(c1C(=O)O)CCNC2
SNS-032 (0.05 µM): CC(C)(C)c1cnc(CSc2cnc(NC(=O)C3CCNCC3)s2)o1
everolimus (0.1 µM): CO[C@H]1C[C@@H]2CC[C@@H](C)[C@@](O)(O2)C(=O)C(=O)N2CCCC[C@H]2C(=O)O[C@H]([C@H](C)C[C@@H]2CC[C@@H](OCCO)[C@H](OC)C2)CC(=O)[C@H](C)/C=C(\C)[C@@H](O)[C@@H](OC)C(=O)[C@H](C)C[C@H](C)/C=C/C=C/C=C/1C

Cell line | GW441756 and everolimus | GW441756 and TCS401 | SNS-032 and TCS401 | GW441756 and SNS-032 | everolimus and SNS-032
G-361 | 242 | 74.8 | 106 | 71.5 | 123
COLO 829 | 409 | 51.5 | 188 | 52.8 | 50.3
WM1716 | 105 | 25.3 | 125 | 372 | 39.4
UACC-257 | 38.9 | 25.6 | 55.7 | 10.2 | 118
MeWo | 180 | 80.1 | 67.1 | 51.5 | 62.8
COLO 792 | 143 | 65.7 | 53.6 | 262 | 330
IPC-298 | 138 | 91.4 | 61.2 | 123 | 166
SK-MEL-5 | 176 | 53.0 | 374 | 310 | 250
RVH-421 | 228 | 82.6 | 79.6 | 108 | 59.8
C32 | 82.0 | 90.7 | 83.1 | 115 | 340
SK-MEL-28 | 47.4 | 131 | 67.8 | 64.3 | 104
A101D | 193 | 114 | 60.4 | 147 | 67.0
UACC-62 | 357 | 61.8 | 185 | 153 | 268
MZ2-MEL | 109 | 103 | 292 | 195 | 239
WM3526 | 190 | 49.3 | 71.0 | 50.7 | 150
WM451Lu | 515 | 23.1 | 63.4 | 529 | 288
SK-MEL-30 | 74.9 | 90.9 | 70.5 | 140 | 157
MEL-HO | 119 | 98.3 | 94.6 | 41.2 | 110
IST-MEL1 | 83.3 | 28.5 | 209 | 27.6 | 131
WM1745 | - | 144 | 252 | 193 | 135
LB2518-MEL | 293 | 77.0 | 156 | 96.4 | 95.0
A2058 | 122 | 117 | 134 | 52.2 | 40.2
WM3619 | 159 | 127 | 246 | 160 | 241
501mel | 239 | 76.7 | 135 | 59.6 | -
A375 | 245 | 34.3 | 17.3 | 35.9 | -
SK-MEL-2 | 73.6 | 15.3 | 259 | 89.2 | 228
WM115 | 43.1 | 280 | 107 | 171 | 232
LOX IMVI | 128 | 38.2 | 62.8 | 301 | 57.8
RPMI-7951 | 59.7 | 150 | 157 | 152 | 459
COLO 800 | 83.4 | 184 | 246 | 87.0 | 139

The first 4 entries again:

Cell line,GW441756 and everolimus,GW441756 and TCS401,SNS-032 and TCS401,GW441756 and SNS-032,everolimus and SNS-032
G-361,242,74.8,106,71.5,123
COLO 829,409,51.5,188,52.8,50.3
WM1716,105,25.3,125,372,39.4
UACC-257,38.9,25.6,55.7,10.2,118